The values below come from patent publication US20180022780A1 (priority 2014, published 2018).

Strings that start with PEPTIDE1 are HELM notation: dots part the residues, brackets hold end groups and non-standard residues.

The nature of this data set: general procedure: Fmoc solid-phase peptide synthesis; NovaSyn TGR R resin (Novabiochem); Oxyma/DIC (HOBt/DIC for manual couplings). The following applies: whole synthesis; for final HPLC purity: analytical RP-HPLC, 220 nm, two column systems; for isolated yield: of theory.
Where [1] appears, read: scale of the general procedure 15 μmol.
Where [2] appears, read: scale of the general procedure 15 μmol, side-chain lactam ring.
Where [3] appears, read: scale 15 μmol, side-chain lactam ring.

For “PAM-GGC*RFGTU*TVQKLAHQIYQFTDKDKDNVAPRSKISPQGY-NH2”, under setting [1], the “final HPLC purity” value is listed as “≧95%” and the isolated yield stood at 2.9%. Besides, the isolated mass (scale 15 μmol) is 2.0 mg.

“H-GGE + RFGTDpr + TVQKLAHQIYQFTDKDKDNVAPRSKISPQGY-NH2”: under setting [2], the “final HPLC purity” value was “≧95%” and the isolated yield worked out at 1.7%. For the same substance, the isolated mass under setting [3] was 1.2 mg.

With “H-GGD + RFGTOrn + TVQKLAHQIYQFTDKDKDNVAPRSKISPQGY-NH2”, under setting [2], the “final HPLC purity” value was “≧95%” and the isolated yield is 3.7%. The substance also showed an isolated mass under setting [3] of 2.4 mg.

Regarding “H-GGD + RFGTK + TVQKLAHQIYQFTDKDKDNVAPRSKISPQGY-NH2”, under setting [2], the “final HPLC purity” value was “≧95%” and the isolated yield is listed as 1.2%. Under setting [3], the isolated mass is on record as 0.8 mg.

In the case of “K(PAM)GDpr + RFGTE + TVQKLAHQIYQFTDKDKDNVAPRSKISPQGY-NH2”, under setting [2], the “final HPLC purity” value was “≧95%” and the isolated yield is on record as 3.4%. Where the note is “scale 15 μmol, acetate salt, side-chain lactam ring”, the isolated mass was 2.4 mg.

Take “H-GGDpr + RFGTE + TVQKLAHQIYQFTDKDKDNVAPRSKISPQGY-NH2”: under setting [2], the “final HPLC purity” value is on record as “≧95%” and the isolated yield is given as 2.7%. Under setting [3], this substance yielded an isolated mass of 1.8 mg.

As for “H-K(PAM)GC*RFGTU*TVQKLAHQIYQFTDKDKDNVAPRSKISPQGY-NH2”, under setting [1], the “final HPLC purity” value was “≧95%” and the isolated yield is 2.9%. For the same substance, the isolated mass (scale 15 μmol) was found to be 2.0 mg.

As for “H-K(PAM)GE + RFGTK + TVQKLAHQIYQFTDKDKDNVAPRSKISPQGY-NH2”, under setting [2], the “final HPLC purity” value is “≧95%” and the isolated yield was 7.6%. Under setting [3], this substance yielded an isolated mass of 5.3 mg.

For the substance “PEPTIDE1{G.G.[Orn].R.F.G.T.D.T.V.Q.K.L.A.H.Q.I.Y.Q.F.T.D.K.D.K.D.N.V.A.P.R.S.K.I.S.P.Q.G.Y.[am]}$PEPTIDE1,PEPTIDE1,3:R3-8:R3$$$V2.0”, under setting [1], the “final HPLC purity” value is on record as “≧95%” and the isolated yield stood at 12.1%. The same substance came in with an isolated mass (scale 15 μmol) of 7.9 mg.

Turning to “PAM-KGC*RFGTU*TVQKLAHQIYQFTDKDKDNVAPRSKISPQGY-NH2”, under setting [1], the “final HPLC purity” value is “≧95%” and the isolated yield is on record as 1.9%. The same substance gave an isolated mass (scale 15 μmol) of 1.3 mg.

On to “PEPTIDE1{G.G.K.R.F.G.T.E.T.V.Q.K.L.A.H.Q.I.Y.Q.F.T.D.K.D.K.D.N.V.A.P.R.S.K.I.S.P.Q.G.Y.[am]}$PEPTIDE1,PEPTIDE1,3:R3-8:R3$$$V2.0”, for which, under setting [1], the “final HPLC purity” value is “≧90%” and the isolated yield was 5.8%. This substance also showed an isolated mass (scale 15 μmol) of 3.8 mg.

For the substance “H-GGU*RFGTC*TVQKLAHQIYQFTDKDKDNVAPRSKISPQGY-NH2”, under setting [1], the isolated yield is listed as 3.4%. Where the note is “scale 15 μmol”, the isolated mass is given as 2.2 mg.

Regarding “H-K(PAM)GDpr + RFGTE + TVQKLAHQIYQFTDKDKDNVAPRS-(N-Me)K-ISPQGY-NH2”, under setting [2], the “final HPLC purity” value was “≧95%” and the isolated yield was 0.9%. Moreover, the isolated mass under setting [3] worked out at 0.6 mg.

Consider “PEPTIDE1{G.G.K.R.F.G.T.D.T.V.Q.K.L.A.H.Q.I.Y.Q.F.T.D.K.D.K.D.N.V.A.P.R.S.K.I.S.P.Q.G.Y.[am]}$PEPTIDE1,PEPTIDE1,3:R3-8:R3$$$V2.0”, for which, under setting [1], the “final HPLC purity” value is “≧95%” and the isolated yield turned out to be 0.5%. Moreover, the isolated mass (scale 15 μmol) is listed as 0.3 mg.

With “H-GGD + RFGTDpr + TVQKLAHQIYQFTDKDKDNVAPRSKISPQGY-NH2”, under setting [2], the “final HPLC purity” value is recorded as “≧90%” and the isolated yield was found to be 5.8%. The isolated mass under setting [3] is 3.8 mg.

With “H-GGD + RFGTDab + TVQKLAHQIYQFTDKDKDNVAPRSKISPQGY-NH2”, under setting [2], the “final HPLC purity” value is recorded as “≧95%” and the isolated yield is given as 2.6%. This substance also yielded an isolated mass under setting [3] of 1.8 mg.

With “H-GGDab + RFGTD + TVQKLAHQIYQFTDKDKDNVAPRSKISPQGY-NH2”, under setting [2], the “final HPLC purity” value is on record as “≧90%” and the isolated yield worked out at 1.9%. The isolated mass under setting [3] was 1.4 mg.

For “H-GGDpr + RFGTD + TVQKLAHQIYQFTDKDKDNVAPRSKISPQGY-NH2”, under setting [2], the “final HPLC purity” value is listed as “≧95%” and the isolated yield is recorded as 2.9%. This substance also registered an isolated mass under setting [3] of 1.9 mg.

Consider “H-GGOrn + RFGTE + TVQKLAHQIYQFTDKDKDNVAPRSKISPQGY-NH2”, for which, under setting [2], the “final HPLC purity” value is reported as “≧95%” and the isolated yield turned out to be 2.6%. Also, the isolated mass under setting [3] was determined as 1.7 mg.

As for “H-K(PAM)GE + RFGTK + TVQKLAHQIYQFTDKDKDNVAPRSK-(N-Me)I-SPQGY-NH2”, under setting [2], the “final HPLC purity” value was “≧90%” and the isolated yield came to 0.9%. Under setting [3], this substance returned an isolated mass of 0.6 mg.

For the substance “H-GGDab + RFGTE + TVQKLAHQIYQFTDKDKDNVAPRSKISPQGY-NH2”, under setting [2], the “final HPLC purity” value is given as “≧95%” and the isolated yield is given as 2.3%. In addition, under setting [3], the isolated mass is 1.5 mg.

On to “H-GGC*RFGTU*TVQKLAHQIYQFTDKDKDNVAPRSKISPQGY-NH2”, for which, under setting [1], the “final HPLC purity” value is “≧90%” and the isolated yield is given as 2.5%. For the same substance, the isolated mass (scale 15 μmol) is 1.6 mg.

For the substance “H-GGE + RFGTK + TVQKLAHQIYQFTDKDKDNVAPRSKISPQGY-NH2”, the “final HPLC purity” value under setting [2] was “≧90%”. Moreover, under setting [3], the isolated yield stood at 9.0% and the isolated mass is reported as 6.0 mg.

With “PEPTIDE1{G.G.[U-CH2CH2].R.F.G.T.[U-CH2CH2].T.V.Q.K.L.A.H.Q.I.Y.Q.F.T.D.K.D.K.D.N.V.A.P.R.S.K.I.S.P.Q.G.Y.[am]}$PEPTIDE1,PEPTIDE1,3:R3-8:R3$$$V2.0”, under setting [1], the “final HPLC purity” value is on record as “≧95%” and the isolated yield is 4.0%. Besides, the isolated mass (scale 15 μmol) was determined as 2.6 mg.

With “H-GGE + RFGTDab + TVQKLAHQIYQFTDKDKDNVAPRSKISPQGY-NH2”, under setting [2], the “final HPLC purity” value is listed as “≧95%” and the isolated yield amounted to 3.0%. The substance also came in with an isolated mass under setting [3] of 1.9 mg.

Turning to “H-GGE + RFGTOrn + TVQKLAHQIYQFTDKDKDNVAPRSKISPQGY-NH2”, under setting [2], the “final HPLC purity” value is “≧95%” and the isolated yield worked out at 2.4%. This substance also yielded an isolated mass under setting [3] of 1.6 mg.

In the case of “H-K(PAM)GK + RFGTE + TVQKLAHQIYQFTDKDKDNVAPRSKISPQGY-NH2”, under setting [2], the “final HPLC purity” value is “≧95%” and the isolated yield was determined as 5.0%. In addition, the isolated mass under setting [3] is given as 3.5 mg.
